Measurements published in PubChem BioAssay AID504444 (National Center for Advancing Translational Sciences (NCATS), 2011).
Screen size: about 360,000 compounds; about 7,500 (2.1%) were called active. Inconclusive results, whose numbers are uncertain, are shown with a selection of clear calls. Calls follow the shape of the dose curve; as a rule, active = well fitted inhibition curve with a large enough effect; inconclusive = small, poorly fitted or top-dose-only effect, or effect the other way; inactive = flat fitted curve, though single readings scatter. Where the call is inconclusive, the potency comes from a doubtful curve fit.

assay: Nrf2 qHTS screen for inhibitors; conditions: A549 ARE-Fluc reporter, luciferase luminescence, 18-24 h; series mostly up to 46 µM; also: nearly all actives have a fitted effect of over 60% in size
Summary of the method: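 Nrf2 activity is the BugLite luminescence, read 15 min after reagent at room temperature, following CellTiter-Fluor cytotoxicity readout (30 min, 37C). Compound titrations were applied for 18-24 h to 5000 A549 ARE_Fluc cells/well in 5% FBS OPTI-MEM.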
Potency is read from the fitted curve at half-maximal effect.

Row | SMILES | Potency
1 | COc1ccc(C(=O)NCc2cc(C)nc3ccccc23)cc1OC | inconclusive: 23.1 µM [falling, single point]
2 | CCOC(=O)c1c(C)nc2c(c(SC)nn2-c2ccccc2)c1N | inactive
3 | CC(C)CNC(=O)c1cccc(NC(=O)Cc2ccc(Cl)cc2)c1 | inactive
4 | O=C(NCCc1nc2ccccc2n1Cc1c(F)cccc1Cl)c1ccco1 | inactive
5 | O=C(CSc1ncccn1)NCc1ccccc1Cl | inconclusive: 1.64 µM [activator, single point]
6 | COc1ccc(-c2nc(CS(=O)(=O)CC(=O)NCCCN3CCN(C)CC3)c(C)o2)cc1 | inconclusive: 25.9 µM [activator, single point]
7 | C=CCn1c(SCC(=O)N(CC)C2CCS(=O)(=O)C2)nc2scc(-c3ccccc3)c2c1=O (centres undefined) | inactive
8 | Cc1ccc(NS(=O)(=O)c2cc3c(cc2C)OCC(=O)N3)cc1C | inactive
9 | CC1=C(C(=O)Nc2ccc(Cl)cc2)C(c2cccs2)n2nc(SCc3cccc(C)c3)nc2N1 (centres undefined) | inconclusive: 29.1 µM [activator, single point]
10 | Cc1ccc2c(c1)N(CCC(=O)NCC1CCCO1)C(=O)CO2 (centres undefined) | inconclusive: 0.206 µM [activator, full curve, poor fit]
11 | COC(=O)C1Cc2ccccc2CN1C(=O)CCl (centres undefined) | inactive
12 | COc1ccc(C(CNC(=O)C2CC(=O)N(Cc3ccc(C)cc3)C2)N(C)C)cc1 (centres undefined) | inconclusive: 1.46 µM [activator, partial curve]
13 | CCn1c(CSc2nc3ccccc3s2)n[nH]c1=S | inconclusive: 3.66 µM [falling, partial curve, poor fit]
14 | COCCNC(=O)c1ccc2c(c1)ncn2-c1ccc(C)c(Cl)c1 | inconclusive: 32.6 µM [activator, single point]
15 | CC(C)(C)OC(=O)N1CCC(c2c(C(=O)N3CCN(c4ccccc4F)CC3)cnn2-c2ccccc2Cl)CC1 | inactive
16 | COc1ccc(Br)cc1/C(C)=N/NC1=NCCN1 | active: 11.6 µM
17 | O=c1[nH]c2ccccc2nc1/C=C/c1ccc(F)cc1 | inconclusive: 4.61 µM [activator, partial curve]
18 | CCCCS(=O)(=O)c1oc(-c2cccs2)nc1S(=O)(=O)c1ccc(F)cc1 | inconclusive: 23.1 µM [falling, single point]
19 | O=C1CC(c2cc(F)cc(F)c2)c2cc3c(cc2N1)OCO3 (centres undefined) | inconclusive: 16.4 µM [falling, partial curve]
20 | COc1ccc(-c2noc(CCC(=O)NC3CCCCC3)n2)cc1 | active: 16.4 µM
21 | CN1CCN(C2=C(Cl)C(=O)N(CCc3ccccc3)C2=O)CC1 | inconclusive: 16.4 µM [activator, partial curve]
22 | O=C(N/C=C/c1ccccc1)Nc1ccc(Cl)cc1 | inconclusive: 18.4 µM [activator, single point]

Row | SMILES | Potency
23 | CCOC(CNC(=O)c1ccc(N2CCc3ccccc32)c([N+](=O)[O-])c1)OCC | inconclusive: 29.1 µM [falling, single point]
24 | Cc1ccc(NC(=O)CSc2ccc(-c3ccc4c(c3)OCO4)nn2)cc1F | inconclusive: 0.82 µM [activator, full curve]
25 | N#Cc1ccc(-c2ccc(OCC(=O)Nc3cccnc3)cc2)cc1 | active: 7.31 µM
26 | O=S(=O)(/N=C(/c1ccccc1Cl)N1CCOCC1)c1ccccc1 | inconclusive: 4.11 µM [activator, full curve, poor fit]
27 | COc1cccc(C(=O)Nc2ccc(C(=O)c3ccccc3)cc2)c1 | inconclusive: 29.1 µM [falling, single point]
28 | C#CCOc1nc2c(c(=O)n(C)c(=O)n2C)n1Cc1ccccc1 | inconclusive: 16.4 µM [falling, partial curve, poor fit]
29 | O=c1c(NCc2ccccc2Cl)nccn1-c1ccccc1 | inconclusive: 8.2 µM [falling, single point]
30 | C/C(Cc1ccccc1)=N/NC(=O)CNC(=O)C(c1ccccc1)c1ccccc1 | inconclusive: 7.31 µM [falling, partial curve, poor fit]
31 | COc1cccc(OCc2ccc(Cl)cc2)c1C#N | inconclusive: 1.16 µM [activator, full curve, poor fit]
32 | CC(Oc1ccccc1C(N)=O)C(=O)Nc1ccc(S(=O)(=O)N2CCCC2)cc1 (centres undefined) | inconclusive: 29.1 µM [falling, single point]
33 | Cn1nc(-c2ccncc2)nc2c(=O)n(C)c(=O)nc1-2 | active: 2.31 µM
34 | CC(=O)NC1Sc2ccccc2N=C1c1ccccc1 (centres undefined) | inconclusive: 11.6 µM [activator, partial curve]
35 | CCOC(=O)C(C)N1C(=O)S/C(=C/c2cc(C)n(-c3ccccn3)c2C)C1=O (centres undefined) | inconclusive: 1.64 µM [activator, partial curve, poor fit]
36 | O=C(OC1CCCCC1=O)c1cccc(S(=O)(=O)NCc2ccccc2)c1 (centres undefined) | inconclusive: 29.1 µM [falling, single point]
37 | CCN1CCN(Cc2ccc(NC(=O)c3ccc(C)c(NC(=O)c4cccc5[nH]ccc45)c3)cc2C(F)(F)F)CC1 | inconclusive: 20.6 µM [activator, partial curve]
38 | Cc1ccc(C(=O)Nc2nnc(S(=O)(=O)N3CCCCCC3)s2)cc1 | inconclusive: 2.59 µM [activator, single point]
39 | CC(=O)Nc1ccc(-c2nnc3n(Cc4ccc(C)cc4)c(=O)c4ccccc4n23)cc1 | inactive
40 | N#Cc1ccccc1NC(=O)CSc1nccn1CCc1ccccc1 | inconclusive: 5.8 µM [activator, full curve]
41 | COC(=O)C1=C(O)/C(=C\c2ccc(OCC(=O)Nc3ccccc3)cc2)N=C1C | inactive
42 | COCCn1c(C)cc(C(=O)CSc2nc(C)nc3sc4c(c23)CCC4)c1C | inconclusive: 4.11 µM [falling, single point]
43 | CCC(=O)N1CCc2cc(Br)cc(S(=O)(=O)N3CCC(C(=O)Nc4ccccc4F)CC3)c21 | active: 13 µM
44 | COc1ccc(-n2cnnc2SCC(=O)Nc2cc(S(=O)(=O)N3CCCCC3)ccc2C)cc1 | inconclusive: 20.6 µM [falling, single point]
